{
  "sequences": {"note": "The chains behind the UniProt entries cited, without tags or fusion partners. Where a name states a change or a piece, a line headed by the entry shows the natural chain unless it says otherwise.", "UniProt Q15631": "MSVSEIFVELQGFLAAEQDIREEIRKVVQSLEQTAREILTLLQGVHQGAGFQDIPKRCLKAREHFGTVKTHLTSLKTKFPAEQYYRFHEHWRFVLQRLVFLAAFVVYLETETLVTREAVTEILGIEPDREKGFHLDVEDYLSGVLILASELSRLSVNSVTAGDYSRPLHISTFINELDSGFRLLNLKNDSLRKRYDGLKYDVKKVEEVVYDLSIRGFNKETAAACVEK"},
  "source": "paper PMC3834833",
  "target": "translin (wild type) (Homo sapiens) (UniProt Q15631)",
  "test": "not stated (cited value)",
  "settings": "SAXS: 10 mM Tris-HCl pH 8.0, 100 mM NaCl, 0.1 mM EDTA, 1 mM DTT, 5% glycerol; complex incubated 20 min at 25 C, measured at 10 C; recombinant protein; residues 1-228; protein details: N-terminal His6 (pQE-9)",
  "note": "For at least one entry, the source does not settle the construct or the ends of the probe.",
  "data": [
    {"sequence": "GUGUGUGUGUGUGUGUGUGUGUGU [(GU)12]", "values": [
      {"measurement": "Kd", "value": 2, "unit": "nM"}
    ]}
  ]
}
